# Test results: the supplement of paper PMC8728848
# The list shows a part of the results.
# B1: MFG-E8 (Mus musculus), P21956 (protein)
# chain: MQVSRVLAALCGMLLCASGLFAASGDFCDSSLCLNGGTCLTGQDNDIYCLCPEGFTGLVCNETERGPCSPNPCYNDAKCLVTLDTQRGDIFTEYICQCPVGYSGIHCETETNYYNLDGEYMFTTAVPNTAVPTPAPTPDLSNNLASRCSTQLGMEGGAIADSQISASSVYMGFMGLQRWGPELARLYRTGIVNAWTASNYDSKPWIQVNLLRKMRVSGVMTQGASRAGRAEYLKTFKVAYSLDGRKFEFIQDESGGDKEFLGNLDNNSLKVNMFNPTLEAQYIKLYPVSCHRGCTLRFELLGCELHGCSEPLGLKNNTIPDSQMSASSSYKTWNLRAFGWYPHLGRLDNQGKINAWTAQSNSAKEWLQVDLGTQRQVTGIITQGARDFGHIQYVASYKVAHSDDGVQWTVYEEQGSSKVFQGNLDNNSHKKNIFEKPFMARYVRVLPVSWHNRITLRLELLGC
# Assays:
# Experiment in all cases: glycan array binding signal (z-score within array); higher = stronger binding
# Conditions in all cases: glycan notation: IUPAC condensed, linker removed
# [1] = target: Fuc(a1-2)Gal(b1-4)GlcNAc(b1-2)[Fuc(a1-2)Gal(b1-4)GlcNAc(b1-4)]Man(a1-3)[Fuc(a1-2)Gal(b1-4)GlcNAc(b1-2)Man(a1-6)]Man(b1-4)GlcNAc(b1-4)GlcNAc
# Procedure, shortened: (§1)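 Arrays were curated from the Consortium for Functional Glycomics database, 3228 in total, and kept only where the protein sequence was available. Binding is expressed as a within-array Z-score. This score was averaged across arrays of the same protein sequence at different concentrations or buffers and across linkers, and negative values can be read as non-binding.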
# [2] = target: Fuc(a1-2)Gal(b1-4)GlcNAc(b1-3)Gal(b1-4)GlcNAc
# Procedure, shortened: as §1
# [3] = target: Fuc(a1-2)Gal(b1-4)GlcNAc(b1-3)Gal(b1-4)GlcNAc(b1-2)Man(a1-3)[Fuc(a1-2)Gal(b1-4)GlcNAc(b1-3)Gal(b1-4)GlcNAc(b1-2)Man(a1-6)]Man(b1-4)GlcNAc(b1-4)GlcNAc
# Procedure, shortened: as §1
# [4] = target: Fuc(a1-2)Gal(b1-4)GlcNAc(b1-3)Gal(b1-4)GlcNAc(b1-3)Gal(b1-4)GlcNAc
# Procedure, shortened: as §1
# [5] = target: Fuc(a1-2)Gal(b1-4)GlcNAc(b1-3)GalNAc
# Procedure, shortened: as §1
# [6] = target: Fuc(a1-2)Gal(b1-4)GlcNAc(b1-3)[Fuc(a1-2)Gal(b1-4)GlcNAc(b1-6)]GalNAc
# Procedure, shortened: as §1
# [7] = target: Fuc(a1-2)Gal(b1-4)GlcNAc(b1-3)[Fuc(a1-3)[Gal(b1-4)]GlcNAc(b1-6)]Gal(b1-4)Glc
# Procedure, shortened: as §1
# [8] = target: Fuc(a1-2)Gal(b1-4)GlcNAc(b1-6)GalNAc
# Procedure, shortened: as §1
# [9] = target: Fuc(a1-2)Gal(b1-4)GlcNAc6S
# Procedure, shortened: as §1
# [10] = target: Fuc(a1-2)Gal(b1-4)[Fuc(a1-3)]GlcNAc
# Procedure, shortened: as §1
# [11] = target: Fuc(a1-2)Gal(b1-4)[Fuc(a1-3)]GlcNAc(b1-2)Man(a1-3)[Fuc(a1-2)Gal(b1-4)[Fuc(a1-3)]GlcNAc(b1-2)Man(a1-6)]Man(b1-4)GlcNAc(b1-4)GlcNAc
# Procedure, shortened: as §1
# [12] = target: Fuc(a1-2)Gal(b1-4)[Fuc(a1-3)]GlcNAc(b1-2)Man(a1-3)[Fuc(a1-2)Gal(b1-4)[Fuc(a1-3)]GlcNAc(b1-2)Man(a1-6)]Man(b1-4)GlcNAc(b1-4)[Fuc(a1-6)]GlcNAc
# Procedure, shortened: as §1
# [13] = target: Fuc(a1-2)Gal(b1-4)[Fuc(a1-3)]GlcNAc(b1-2)[Fuc(a1-2)Gal(b1-4)[Fuc(a1-3)]GlcNAc(b1-4)]Man(a1-3)[Fuc(a1-2)Gal(b1-4)[Fuc(a1-3)]GlcNAc(b1-2)Man(a1-6)]Man(b1-4)GlcNAc(b1-4)GlcNAc
# Procedure, shortened: as §1
# [14] = target: Fuc(a1-2)Gal(b1-4)[Fuc(a1-3)]GlcNAc(b1-3)Gal(b1-4)[Fuc(a1-3)]GlcNAc
# Procedure, shortened: as §1
# [15] = target: Fuc(a1-2)Gal(b1-4)[Fuc(a1-3)]GlcNAc(b1-3)Gal(b1-4)[Fuc(a1-3)]GlcNAc(b1-3)Gal(b1-4)[Fuc(a1-3)]GlcNAc
# Procedure, shortened: as §1
# [16] = target: Fuc(a1-2)Gal(b1-4)[Fuc(a1-3)]GlcNAc(b1-3)GalNAc
# Procedure, shortened: as §1
# [17] = target: Fuc(a1-2)Gal(b1-4)[Fuc(a1-3)]GlcNAc(b1-3)[Neu5Ac(a2-6)Gal(b1-4)GlcNAc(b1-6)]Gal(b1-4)Glc
# Procedure, shortened: as §1
# [18] = target: Fuc(a1-2)Gal3S(b1-4)GlcNAc
# Procedure, shortened: as §1
# [19] = target: Fuc(a1-2)Gal6S(b1-3)GlcNAc
# Procedure, shortened: as §1
# [20] = target: Fuc(a1-2)Gal6S(b1-3)GlcNAc6S
# Procedure, shortened: as §1
# [21] = target: Fuc(a1-2)Gal6S(b1-4)Glc
# Procedure, shortened: as §1
# [22] = target: Fuc(a1-2)Gal6S(b1-4)Glc6S
# Procedure, shortened: as §1
# [23] = target: Fuc(a1-2)Gal6S(b1-4)GlcNAc
# Procedure, shortened: as §1
# [24] = target: Fuc(a1-2)[Gal(a1-3)]Gal
# Procedure, shortened: as §1
# [25] = target: Fuc(a1-2)[Gal(a1-3)]Gal(b1-3)GalNAc
# Procedure, shortened: as §1
# [26] = target: Fuc(a1-2)[Gal(a1-3)]Gal(b1-3)GalNAc(b1-3)Gal(a1-4)Gal(b1-4)Glc
# Procedure, shortened: as §1
# [27] = target: Fuc(a1-2)[Gal(a1-3)]Gal(b1-3)GlcNAc
# Procedure, shortened: as §1
# [28] = target: Fuc(a1-2)[Gal(a1-3)]Gal(b1-3)GlcNAc(b1-2)Man(a1-3)[Fuc(a1-2)[Gal(a1-3)]Gal(b1-3)GlcNAc(b1-2)Man(a1-6)]Man(b1-4)GlcNAc(b1-4)GlcNAc
# Procedure, shortened: as §1
# [29] = target: Fuc(a1-2)[Gal(a1-3)]Gal(b1-3)GlcNAc(b1-2)Man(a1-3)[Fuc(a1-2)[Gal(a1-3)]Gal(b1-3)GlcNAc(b1-2)Man(a1-6)]Man(b1-4)GlcNAc(b1-4)[Fuc(a1-6)]GlcNAc
# Procedure, shortened: as §1
# [30] = target: Fuc(a1-2)[Gal(a1-3)]Gal(b1-3)GlcNAc(b1-3)GalNAc
# Procedure, shortened: as §1
binder,measurement,setting,value
B1,glycan array binding signal (z-score),[1],0.01
same,glycan array binding signal (z-score),[2],-0.504
same,glycan array binding signal (z-score),[3],0.035
same,glycan array binding signal (z-score),[4],-0.712
same,glycan array binding signal (z-score),[5],0.522
same,glycan array binding signal (z-score),[6],0.304
same,glycan array binding signal (z-score),[7],-0.32
same,glycan array binding signal (z-score),[8],-0.31
same,glycan array binding signal (z-score),[9],0.247
same,glycan array binding signal (z-score),[10],-0.275
same,glycan array binding signal (z-score),[11],1.02
same,glycan array binding signal (z-score),[12],0.456
same,glycan array binding signal (z-score),[13],0.811
same,glycan array binding signal (z-score),[14],0.033
same,glycan array binding signal (z-score),[15],-0.191
same,glycan array binding signal (z-score),[16],0.914
same,glycan array binding signal (z-score),[17],0.079
same,glycan array binding signal (z-score),[18],-0.182
same,glycan array binding signal (z-score),[19],0.086
same,glycan array binding signal (z-score),[20],8.57
same,glycan array binding signal (z-score),[21],-0.377
same,glycan array binding signal (z-score),[22],0.059
same,glycan array binding signal (z-score),[23],-0.269
same,glycan array binding signal (z-score),[24],0.081
same,glycan array binding signal (z-score),[25],0.041
same,glycan array binding signal (z-score),[26],0.733
same,glycan array binding signal (z-score),[27],0.566
same,glycan array binding signal (z-score),[28],0.574
same,glycan array binding signal (z-score),[29],-0.101
same,glycan array binding signal (z-score),[30],0.812

# Another view of part of the listing above:
binder	measurement	setting	value
B1	glycan array binding signal (z-score)	[5]	0.522
same	glycan array binding signal (z-score)	[19]	0.086
